Results on two molecules are retold here after US20080207449A1.

Amino acid sequences for entries named in this document (tags omitted). A change or cut given only in a name is not applied to a line headed by its entry. Chains listed by the source or under a name are the forms on record and can include a tag or linker.
HA-tagged wild-type AtE2Fb, in vitro translated (Q9FV71, form named): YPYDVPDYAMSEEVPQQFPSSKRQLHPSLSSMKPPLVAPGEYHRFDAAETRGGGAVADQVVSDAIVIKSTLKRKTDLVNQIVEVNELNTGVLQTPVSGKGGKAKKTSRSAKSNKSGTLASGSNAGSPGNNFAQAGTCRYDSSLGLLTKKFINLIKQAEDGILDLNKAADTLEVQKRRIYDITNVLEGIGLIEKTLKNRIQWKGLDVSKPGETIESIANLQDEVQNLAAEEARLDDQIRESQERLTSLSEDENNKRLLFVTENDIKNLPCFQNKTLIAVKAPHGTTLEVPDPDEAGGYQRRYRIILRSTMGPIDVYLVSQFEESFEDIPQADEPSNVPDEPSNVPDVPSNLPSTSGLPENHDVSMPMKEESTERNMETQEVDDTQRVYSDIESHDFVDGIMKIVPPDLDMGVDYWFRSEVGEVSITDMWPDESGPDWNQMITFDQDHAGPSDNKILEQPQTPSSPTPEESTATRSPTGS

These are yes or no findings as the source states them, for the method shown. Binding seen in cells or lysates may run through a third protein. Some results given as binding are weak or reduced against the parent protein; the word gives no strength. Tags and fused reporters may be left off the sequences shown.

This experiment has as its target HA-tagged wild-type AtE2Fb, in vitro translated (Arabidopsis) (UniProt Q9FV71). The experiment can be described thus: co-immunoprecipitation (anti-c-myc) of in vitro co-translated tagged proteins, SDS-PAGE autoradiography.

B1: c-myc-tagged AtDPb 182-385, in vitro translated (protein)
chain: EQKLISEEDLEQKLISEEDLGLPRTSLSDIEELKNERLSLRNRIEKKTAYSQELEEQYVGLQNLIQRNEHLYSSGNAPSGGVALPFILVQTRPHATVEVEISEDMQLVHFDFNSTPFELHDDNFVLKTMKFCDQPPQQPNGRNNSQLVCHNFTPENPNKGPSTGPTPQLDMYETHLQSQQHQQHSQLQIIPMPETNNVTSSADTAPVKSPSLPGIMNSSMKPEN
For B1, the binding entry is given as “binds”.

B2: c-myc-tagged AtDPb 1-263, in vitro translated (protein)
chain: EQKLISEEDLEQKLISEEDLMTTTGSNSNHNHHESNNNNNNPSTRSWGTAVSGQSVSTSGSMGSPSSRSEQTITVVTSTSDTTFQRLNNLDIQGDDAGSQGASGVKKKKRGQRAAGPDKTGRGLRQFSMKVCEKVESKGRTTYNEVADELVAEFALPNNDGTSPDQQQYDEKNIRRRVYDALNVLMAMDIISKDKKEIQWRGLPRTSLSDIEELKNERLSLRNRIEKKTAYSQELEEQYVGLQNLIQRNEHLYSSGNAPSGGVALPFILVQTRPHATVEVEI
As to B2, the binding entry was “binds”.
